In patent US20100129806A1:
No constants are given. Whether binding was seen depends on the method and setting. For some of these results: In cells and extracts the contact can be indirect. Some entries that bind do so weakly or less than the wild type.

By UniProt entry, the sequences of proteins in these tests, tags left out. Where a name states a change or a piece, a line headed by the entry shows the natural chain unless it says otherwise.
UniProt Q80V72: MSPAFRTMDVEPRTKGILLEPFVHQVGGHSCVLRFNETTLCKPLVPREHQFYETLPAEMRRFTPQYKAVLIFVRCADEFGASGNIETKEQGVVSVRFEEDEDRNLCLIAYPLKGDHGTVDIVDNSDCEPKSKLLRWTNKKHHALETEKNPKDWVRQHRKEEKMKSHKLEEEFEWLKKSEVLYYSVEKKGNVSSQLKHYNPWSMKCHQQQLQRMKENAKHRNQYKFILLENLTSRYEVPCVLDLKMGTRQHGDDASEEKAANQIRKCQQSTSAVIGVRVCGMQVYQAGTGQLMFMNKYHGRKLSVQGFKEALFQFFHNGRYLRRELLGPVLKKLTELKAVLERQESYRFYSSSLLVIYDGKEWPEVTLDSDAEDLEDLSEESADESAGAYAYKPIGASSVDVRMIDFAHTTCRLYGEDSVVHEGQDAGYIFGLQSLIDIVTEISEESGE
UniProt Q9UHH9: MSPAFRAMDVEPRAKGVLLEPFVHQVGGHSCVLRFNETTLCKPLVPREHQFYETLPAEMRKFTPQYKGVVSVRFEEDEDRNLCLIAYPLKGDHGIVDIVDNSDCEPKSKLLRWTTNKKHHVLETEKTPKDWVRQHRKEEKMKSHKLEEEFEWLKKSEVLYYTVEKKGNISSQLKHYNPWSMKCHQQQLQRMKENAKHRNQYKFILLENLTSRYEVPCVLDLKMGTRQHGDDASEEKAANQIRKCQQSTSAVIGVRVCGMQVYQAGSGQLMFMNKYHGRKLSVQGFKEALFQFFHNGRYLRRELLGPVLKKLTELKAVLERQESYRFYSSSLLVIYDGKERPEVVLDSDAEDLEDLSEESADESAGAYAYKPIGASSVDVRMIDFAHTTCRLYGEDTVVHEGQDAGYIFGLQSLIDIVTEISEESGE

Experiments:
[1] = molecular target: endogenous HSP90 of mouse brain (mouse) (UniProt P07901); experiment: co-immunoprecipitation from mouse brain
[2] = molecular target: endogenous HSP90 of mouse brain (mouse) (UniProt P07901); experiment: immunoprecipitation with HSP90 monoclonal antibody from mouse brain extract, IP6K2 immunoblot (FIG. 1D)
[3] = molecular target: GST-HSP90 alpha fragment 629-732 (C-terminus, C), bacterially purified (human); experiment: in vitro binding of GST-HSP90 deletion constructs to immunoprecipitated myc-IP6K2
[4] = molecular target: GST-HSP90 alpha fragment 629-732 (C-terminus, C), bacterially purified (human); experiment: in vitro binding of 250 nM GST-HSP90 WT and deletion constructs to immunoprecipitated myc-IP6K2, HSP90 immunoblot (FIG. 8B)

Substance	binding [1]	binding [2]	binding [3]	binding [4]
endogenous IP6K2 of mouse brain (from UniProt Q80V72 1-448) (enzyme)	binds	binds		
myc-tagged IP6K2 (inositol hexakisphosphate kinase-2), wild type (from UniProt Q9UHH9 1-426) (enzyme)			binds	binds
